The record followed here is PMC7819943, “Rice protein-binding microarrays: a tool to detect cis-acting elements near promoter regions in rice”.

By UniProt entry, the sequences of proteins in these tests, tags left out.
UniProt Q0JBA9, entry or part of it: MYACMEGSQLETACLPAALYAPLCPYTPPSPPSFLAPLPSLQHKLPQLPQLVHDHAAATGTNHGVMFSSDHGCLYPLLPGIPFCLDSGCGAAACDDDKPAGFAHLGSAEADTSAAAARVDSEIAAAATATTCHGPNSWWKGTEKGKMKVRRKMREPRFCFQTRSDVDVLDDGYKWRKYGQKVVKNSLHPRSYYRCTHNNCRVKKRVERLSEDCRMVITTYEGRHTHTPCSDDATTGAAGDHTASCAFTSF

The list shows a part of the results.

For this test, the target named is OsWRKY34 (Oryza sativa, UniProt Q0JBA9 1-250). Kind of test: protein-binding microarray (RPBM); PBS, 2% BSA, 51.3 ng/ul salmon testes DNA, 50 uM zinc acetate, 200 nM TF, 25 C, 1 h; high values mean tight binding. Particulars: protein: recombinant; tags: N-terminal polyhistidine and DsRed monomer fusion (pET32a); label: CyDye5-dUTP incorporated in the synthesized complementary strand; 3' TTTTT single-stranded linker to array surface; dsDNA, one strand shown. The method, boiled down: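 Transcription factors, each fused N-terminally to a polyhistidine tag and DsRed, were expressed in E. coli BL21-CodonPlus and purified on Ni–NTA. A custom Agilent array was made double-stranded by primer extension with Cy5-dUTP and blocked with 2% BSA. It was incubated with 200 nM protein in PBS, 2% BSA, salmon testes DNA and 50 µM zinc acetate at 25 °C for 1 h, then washed. The binding signal is per-feature fluorescence intensity (arbitrary units) read on an Axon 4000B scanner.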
Consider “CCATCGAATCCAATTCCATAGCTCGCACTTTTTCTATTCTCGGAGTCACCTAGTGCAG”, for which the binding signal is 9220 fluorescence intensity (a.u.).

In the case of “ATAGTCCCAGGCCTATAATCTTTTTTTTTCTTGCTATATCCGGAGTCACCTAGTGCAG”, the binding signal is 8600 fluorescence intensity (a.u.).

On to “ACTGTATATATATATATGTGTGTGTGTGTTTAGATTCATTCGGAGTCACCTAGTGCAG”, for which the binding signal is 8530 fluorescence intensity (a.u.).

As to “TCGTTTCCACCACTCCGCTCTCTCCCCTCCTTATCCCCGTCGGAGTCACCTAGTGCAG”, the binding signal is 10300 fluorescence intensity (a.u.).

Regarding “GGTTTAGGATTGGGTAATTTGGTTGGTGAGTTCACCCAAGCGGAGTCACCTAGTGCAG”, the binding signal is 10900 fluorescence intensity (a.u.).

As for “CCGCTTTCCGGCCCTCGACCGCCCGTAGCCGCCGCTCCAGCGGAGTCACCTAGTGCAG”, the binding signal is 8500 fluorescence intensity (a.u.).

On to “GACGACGCCACCTCCACCTTCACCTGCAACCACACCGATTCGGAGTCACCTAGTGCAG”, for which the binding signal is 9120 fluorescence intensity (a.u.).

“ACATATTTTACTCGTGGTTTCCATTAGTATACTTTTCAAACGGAGTCACCTAGTGCAG”: the binding signal is 9560 fluorescence intensity (a.u.).

With “TTTCCTTTTTCGTTTTTTCGCAAGCGCGCCCGCCTTCAAACGGAGTCACCTAGTGCAG”, the binding signal was 9440 fluorescence intensity (a.u.).

Take “ACTCCGTACTACTGCTACTATTTTTGTCCTGTTCAGATAACGGAGTCACCTAGTGCAG”: the binding signal is 12100 fluorescence intensity (a.u.).

For “AAGGGCATTACATTTCACGTGATTTTTCTCTCATCTTCAACGGAGTCACCTAGTGCAG”, the binding signal is 12200 fluorescence intensity (a.u.).

As to “GCTCCGCACTATCCTCCTCAAGTTTTGGTTGAATCGATCTCGGAGTCACCTAGTGCAG”, the binding signal was 8820 fluorescence intensity (a.u.).

On to “GAAATAAGCCAAACGATGGGACCTACTTTTCGTCCCTTAACGGAGTCACCTAGTGCAG”, for which the binding signal is 8310 fluorescence intensity (a.u.).

On to “TCTCTCACCTTTTCTTCTCAATCCGAGCAAGACGGCCGGCCGGAGTCACCTAGTGCAG”, for which the binding signal was 8420 fluorescence intensity (a.u.).

Take “AGCCATTGCCACACACACACCGACCGGTGCTGTCGTGCTTCGGAGTCACCTAGTGCAG”: the binding signal was 8960 fluorescence intensity (a.u.).

As to “ATCTATTGCTCCCTGCTCTGGTTACTTGCAATACACTAGTCGGAGTCACCTAGTGCAG”, the binding signal is 9060 fluorescence intensity (a.u.).

Take “CAATTCCTCGTCTTCCAATCGCTGACTTCTATTCCCTGCTCGGAGTCACCTAGTGCAG”: the binding signal was 8470 fluorescence intensity (a.u.).

As for “AATTTCGTCTTAAAAAAATATTTTGAGGATGTCTCTCTCTCGGAGTCACCTAGTGCAG”, the binding signal is 8400 fluorescence intensity (a.u.).

As for “TACTGGCTTCACTTCTGTCTATATTCTTTCACATTTACATCGGAGTCACCTAGTGCAG”, the binding signal was 8580 fluorescence intensity (a.u.).

Take “ATCTCAATCTTATCGATGTATTACCACACTGGGAGCTACACGGAGTCACCTAGTGCAG”: the binding signal is 8680 fluorescence intensity (a.u.).

For “GCTTTGCTGTTCTTTGCTTTGGTTCGGGGATCCGATTTCCCGGAGTCACCTAGTGCAG”, the binding signal is 9290 fluorescence intensity (a.u.).

Take “GGTGGAGGGTAATACGGTCATTTCAACACTCTGCCACCCTCGGAGTCACCTAGTGCAG”: the binding signal was 8690 fluorescence intensity (a.u.).

With “GTTTTGTTTTGGTTGACCTTCACTTTCCATTTGCGACGATCGGAGTCACCTAGTGCAG”, the binding signal was 8260 fluorescence intensity (a.u.).

Turning to “ACCTCGTGGCCACTGTTGCATGGTCAACTTTCCCACCCATCGGAGTCACCTAGTGCAG”, the binding signal is 12700 fluorescence intensity (a.u.).

With “CTAGCTCTATCTCTTCTGTAGCACCGTTTCAACTCTACCACGGAGTCACCTAGTGCAG”, the binding signal is 8280 fluorescence intensity (a.u.).

With “CACCATTTTCCTTACTGTAGATCACTTGGTGTTGTGCATTCGGAGTCACCTAGTGCAG”, the binding signal is 11700 fluorescence intensity (a.u.).

On to “GTCGACGAGCTTCTCCTGGCCCTTTTTATCTGAGTTTTGTCGGAGTCACCTAGTGCAG”, for which the binding signal is 9720 fluorescence intensity (a.u.).

Turning to “AATTTCTTTTGTTCTCAAGTCAGTTGGAAGCACCTTTTATCGGAGTCACCTAGTGCAG”, the binding signal was 8530 fluorescence intensity (a.u.).

As to “TTGTCAATCCAACCTGCATCTATGCCCATGCGTGTGTTCTCGGAGTCACCTAGTGCAG”, the binding signal was 8130 fluorescence intensity (a.u.).

Turning to “GCTCCGTGCTCTGCGCCTCCAAACGCGCGCGCCATTTTTCCGGAGTCACCTAGTGCAG”, the binding signal is 10200 fluorescence intensity (a.u.).

With “ACCCCGCCGATCAGAGCTCTCCTGTGCCCATATCCTGTTGCGGAGTCACCTAGTGCAG”, the binding signal was 14900 fluorescence intensity (a.u.).

Take “TTACGCTCACTTTACAATTTCTACACTTGCTAATTTTAATCGGAGTCACCTAGTGCAG”: the binding signal is 8040 fluorescence intensity (a.u.).

Take “ATCTGTCAGTGCCACATCACCACCACACAACCGCAAAGAACGGAGTCACCTAGTGCAG”: the binding signal was 9250 fluorescence intensity (a.u.).

In the case of “GGTTTGGTGGTTGGTTTTCGGGTTCTGACTAGGGTTTGGTCGGAGTCACCTAGTGCAG”, the binding signal was 14000 fluorescence intensity (a.u.).

“ATAACATATTTATTTACTTAGTATATCTTACTGATTTTAGCGGAGTCACCTAGTGCAG”: the binding signal is 8040 fluorescence intensity (a.u.).

Regarding “GATTCGATTCGACTCGACTCTCCCGCCTGATTCTTTTTTTCGGAGTCACCTAGTGCAG”, the binding signal was 8130 fluorescence intensity (a.u.).

“CAATGCACTTGCACAGTCCCTTCTGATTTCTTCGCGAATCCGGAGTCACCTAGTGCAG”: the binding signal was 8160 fluorescence intensity (a.u.).

On to “TCCAGGAATTTTAACAATCGTGCACAAACATTTTATAACACGGAGTCACCTAGTGCAG”, for which the binding signal is 8360 fluorescence intensity (a.u.).

Regarding “CCATGCACATTTCGATACATCGTCACTTAGTTAATTCAATCGGAGTCACCTAGTGCAG”, the binding signal was 8580 fluorescence intensity (a.u.).

Take “GCGTGGGTTGGGCTGGCAAATACTACACCGTGGGCTTCCACGGAGTCACCTAGTGCAG”: the binding signal was 14300 fluorescence intensity (a.u.).

Turning to “GCGTCTGGGCTTATTTTTTCGACGGTCACTGCACCTGAATCGGAGTCACCTAGTGCAG”, the binding signal was 8990 fluorescence intensity (a.u.).

Consider “GCGGCGGTGGGGATGGGGATAGGGCGGCGGCGGCGGATGGCGGAGTCACCTAGTGCAG”, for which the binding signal is 13600 fluorescence intensity (a.u.).
